Measurements published in patent US20030180892A1.
Results are given in words; binding and its absence hold for the method and conditions named. Some entries that bind do so weakly or less than the wild type. Sequences can lack the tags named with a protein.

Legend:
[1] = molecular target: T1, IL-17 receptor homolog Fc fusion (IL-17RH-Fc) (UniProt Q9NRM6); experiment: BIAcore (SPR), summary of Example 31
T1 sequence (looked up): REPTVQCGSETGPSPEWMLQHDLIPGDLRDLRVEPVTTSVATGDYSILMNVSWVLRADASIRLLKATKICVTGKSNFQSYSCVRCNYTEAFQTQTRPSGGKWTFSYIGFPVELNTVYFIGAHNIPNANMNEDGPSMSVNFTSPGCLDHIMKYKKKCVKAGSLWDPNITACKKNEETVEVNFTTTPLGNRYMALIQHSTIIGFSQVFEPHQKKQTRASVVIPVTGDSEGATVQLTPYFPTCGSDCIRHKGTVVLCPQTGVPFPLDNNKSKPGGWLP

[2] = molecular target: T1, IL-17 receptor homolog Fc fusion (IL-17RH-Fc); experiment: BIAcore (SPR), receptor-Fc immobilized on flow cell; two CHO cell IL-20 preparations

B1: IL-20 polypeptide expressed in CHO cells (conditioned culture supernatants of clones 10, 16 and 22; HS50 cation-exchange fractions; CHO cell IL-20 preparations) (ligand)
chain: RSPKSKRKGQGRPGPLAPGPHQVPLDLVSRMKPYARMEEYERNIEEMVAQLRNSSELAQRKCEVNLQLWMSNKRSLSPWGYSINHDPSRIPVDLPEARCLCLGCVNPFTMQEDRSMVSVPVFSQVPVRRRLCPPPPRTGPCRQRAVMETIAVGCTCIF
modifications: glycosylated; single N-glycosylation site at residue 75 (FIG. 1 numbering)
B1 was tested, and the binding [1] was “binds” and the binding [2] was “binds”.
